Results deposited as PubChem BioAssay AID1259405 (NCATS, 2018)
Screen: 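Knock-downs that lift recombinant protein yield in hamster ovary cells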 (primary screen). Cells: Chinese hamster CHO-K1 ovary cells with stable secreted eGFP expression. Knock-down reagent: single siRNA against mouse genes, 0.8 pmol siRNA per well (2 µl of 400 nM stock). Time to read-out: 3 days. Read-out: 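Per-well intracellular GFP measured by laser scanning cytometry, plus viability from ATP luminescence, each relative to plate median of non-targeting control wells, in %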. Direction: GFP, % of control: higher = more GFP per well, higher productivity; viability (ATP), % of control: higher = more viable cells (more ATP). Hit rule: 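a knock-down is called active if GFP reaches 120% or more of non-targeting control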.
The whole screen tested about 50,000 reagents; this is a random part of them. About 4,000 of them (8%) were called active. 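Mouse siRNA library applied to hamster cells; one well for each siRNA.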 A number with no mark means an inactive call. Reagents against one gene are numbered here. Reagent sequences are not shown.

Which result is listed for Gcm2 (glial cells missing homolog 2) #1?
GFP, % of control: 41; viability (ATP), % of control: 39.6

What did the screen give for Gcm2 (glial cells missing homolog 2) #2?
GFP, % of control: 52.1; viability (ATP), % of control: 48

What is on record for Arpc3 (actin related protein 2/3 complex, subunit 3) #1?
GFP, % of control: 58.4; viability (ATP), % of control: 69.1

With Arpc3 (actin related protein 2/3 complex, subunit 3) #2, what does the deposit list?
GFP, % of control: 84.9; viability (ATP), % of control: 91.5

Which result is listed for Tinf2 (Terf1 (TRF1)-interacting nuclear factor 2) #1?
GFP, % of control: 78; viability (ATP), % of control: 82.6

For Tinf2 (Terf1 (TRF1)-interacting nuclear factor 2) #2, what was measured?
GFP, % of control: 68.2; viability (ATP), % of control: 115

What is on record for Tinf2 (Terf1 (TRF1)-interacting nuclear factor 2) #3?
GFP, % of control: 64.3; viability (ATP), % of control: 72.4

With Vhl (von Hippel-Lindau tumor suppressor) #1, what does the deposit list?
GFP, % of control: 29.5; viability (ATP), % of control: 43.9

With Vhl (von Hippel-Lindau tumor suppressor) #2, what was measured?
GFP, % of control: 110; viability (ATP), % of control: 84

Which result is listed for Vhl (von Hippel-Lindau tumor suppressor) #3?
GFP, % of control: 65.7; viability (ATP), % of control: 107

For Nlrp9a (NLR family, pyrin domain containing 9A) #1, what does the deposit list?
GFP, % of control: 82; viability (ATP), % of control: 86

What is on record for Nlrp9a (NLR family, pyrin domain containing 9A) #2?
GFP, % of control: 63; viability (ATP), % of control: 74.7

For Nlrp9a (NLR family, pyrin domain containing 9A) #3, what was measured?
GFP, % of control: 70.6; viability (ATP), % of control: 47.9

For Fanci (Fanconi anemia, complementation group I) #1, how do the results read?
GFP, % of control: 68.5; viability (ATP), % of control: 75.8

What is on record for Fanci (Fanconi anemia, complementation group I) #2?
GFP, % of control: 65.1; viability (ATP), % of control: 69

What is on record for Fanci (Fanconi anemia, complementation group I) #3?
GFP, % of control: 133 (active); viability (ATP), % of control: 152

What did the screen give for Ryr3 (ryanodine receptor 3) #1?
GFP, % of control: 85.3; viability (ATP), % of control: 87.1

What did the screen give for Ryr3 (ryanodine receptor 3) #2?
GFP, % of control: 77.7; viability (ATP), % of control: 53.1

Which result is listed for Ryr3 (ryanodine receptor 3) #3?
GFP, % of control: 61.4; viability (ATP), % of control: 63.5

How did the screen score Tmem63a (transmembrane protein 63a) #1?
GFP, % of control: 49.5; viability (ATP), % of control: 91.2

What is on record for Tmem63a (transmembrane protein 63a) #2?
GFP, % of control: 76.5; viability (ATP), % of control: 107

What is on record for Tmem63a (transmembrane protein 63a) #3?
GFP, % of control: 175 (active); viability (ATP), % of control: 128

For Chrd (chordin) #1, how do the results read?
GFP, % of control: 59.4; viability (ATP), % of control: 45.9

How did the screen score Chrd (chordin) #2?
GFP, % of control: 43.2; viability (ATP), % of control: 65.1

With Chrd (chordin) #3, what was measured?
GFP, % of control: 112; viability (ATP), % of control: 49.4

What is on record for Akap9 (A kinase anchor protein 9) #1?
GFP, % of control: 20.2; viability (ATP), % of control: 17.5

For Akap9 (A kinase anchor protein 9) #2, what does the deposit list?
GFP, % of control: 92.7; viability (ATP), % of control: 64.6

What did the screen give for Akap9 (A kinase anchor protein 9) #3?
GFP, % of control: 106; viability (ATP), % of control: 106

For Fgf9 (fibroblast growth factor 9) #1, what was measured?
GFP, % of control: 48.7; viability (ATP), % of control: 57.8

What is on record for Fgf9 (fibroblast growth factor 9) #2?
GFP, % of control: 55.9; viability (ATP), % of control: 76

With Fgf9 (fibroblast growth factor 9) #3, what was measured?
GFP, % of control: 61.1; viability (ATP), % of control: 74

What is on record for Daglb (diacylglycerol lipase, beta) #1?
GFP, % of control: 55.6; viability (ATP), % of control: 87.8

What is on record for Daglb (diacylglycerol lipase, beta) #2?
GFP, % of control: 128 (active); viability (ATP), % of control: 107

With Daglb (diacylglycerol lipase, beta) #3, what was measured?
GFP, % of control: 119; viability (ATP), % of control: 64.2

For Or6c6c (olfactory receptor family 6 subfamily C member 6C) #1, how do the results read?
GFP, % of control: 49.7; viability (ATP), % of control: 59.3

What is on record for Or6c6c (olfactory receptor family 6 subfamily C member 6C) #2?
GFP, % of control: 58.5; viability (ATP), % of control: 56.2

Which result is listed for Or6c6c (olfactory receptor family 6 subfamily C member 6C) #3?
GFP, % of control: 105; viability (ATP), % of control: 1.36

With Epha7 (Eph receptor A7), what was measured?
GFP, % of control: 70.1; viability (ATP), % of control: 63.3

For E2f3 (E2F transcription factor 3) #1, what does the deposit list?
GFP, % of control: 70.3; viability (ATP), % of control: 74.9

How did the screen score E2f3 (E2F transcription factor 3) #2?
GFP, % of control: 112; viability (ATP), % of control: 80.9

3 neighbouring reagents already listed, quoted:
Daglb (diacylglycerol lipase, beta) #1 → GFP, % of control: 55.6; viability (ATP), % of control: 87.8
Daglb (diacylglycerol lipase, beta) #2 → GFP, % of control: 128 (active); viability (ATP), % of control: 107
Daglb (diacylglycerol lipase, beta) #3 → GFP, % of control: 119; viability (ATP), % of control: 64.2
